From article PMC11090508

Target: T1, FLAG-BirA*-IBTK (inhibitor of Bruton's tyrosine kinase) (UniProt Q9P2D0)
T1 sequence: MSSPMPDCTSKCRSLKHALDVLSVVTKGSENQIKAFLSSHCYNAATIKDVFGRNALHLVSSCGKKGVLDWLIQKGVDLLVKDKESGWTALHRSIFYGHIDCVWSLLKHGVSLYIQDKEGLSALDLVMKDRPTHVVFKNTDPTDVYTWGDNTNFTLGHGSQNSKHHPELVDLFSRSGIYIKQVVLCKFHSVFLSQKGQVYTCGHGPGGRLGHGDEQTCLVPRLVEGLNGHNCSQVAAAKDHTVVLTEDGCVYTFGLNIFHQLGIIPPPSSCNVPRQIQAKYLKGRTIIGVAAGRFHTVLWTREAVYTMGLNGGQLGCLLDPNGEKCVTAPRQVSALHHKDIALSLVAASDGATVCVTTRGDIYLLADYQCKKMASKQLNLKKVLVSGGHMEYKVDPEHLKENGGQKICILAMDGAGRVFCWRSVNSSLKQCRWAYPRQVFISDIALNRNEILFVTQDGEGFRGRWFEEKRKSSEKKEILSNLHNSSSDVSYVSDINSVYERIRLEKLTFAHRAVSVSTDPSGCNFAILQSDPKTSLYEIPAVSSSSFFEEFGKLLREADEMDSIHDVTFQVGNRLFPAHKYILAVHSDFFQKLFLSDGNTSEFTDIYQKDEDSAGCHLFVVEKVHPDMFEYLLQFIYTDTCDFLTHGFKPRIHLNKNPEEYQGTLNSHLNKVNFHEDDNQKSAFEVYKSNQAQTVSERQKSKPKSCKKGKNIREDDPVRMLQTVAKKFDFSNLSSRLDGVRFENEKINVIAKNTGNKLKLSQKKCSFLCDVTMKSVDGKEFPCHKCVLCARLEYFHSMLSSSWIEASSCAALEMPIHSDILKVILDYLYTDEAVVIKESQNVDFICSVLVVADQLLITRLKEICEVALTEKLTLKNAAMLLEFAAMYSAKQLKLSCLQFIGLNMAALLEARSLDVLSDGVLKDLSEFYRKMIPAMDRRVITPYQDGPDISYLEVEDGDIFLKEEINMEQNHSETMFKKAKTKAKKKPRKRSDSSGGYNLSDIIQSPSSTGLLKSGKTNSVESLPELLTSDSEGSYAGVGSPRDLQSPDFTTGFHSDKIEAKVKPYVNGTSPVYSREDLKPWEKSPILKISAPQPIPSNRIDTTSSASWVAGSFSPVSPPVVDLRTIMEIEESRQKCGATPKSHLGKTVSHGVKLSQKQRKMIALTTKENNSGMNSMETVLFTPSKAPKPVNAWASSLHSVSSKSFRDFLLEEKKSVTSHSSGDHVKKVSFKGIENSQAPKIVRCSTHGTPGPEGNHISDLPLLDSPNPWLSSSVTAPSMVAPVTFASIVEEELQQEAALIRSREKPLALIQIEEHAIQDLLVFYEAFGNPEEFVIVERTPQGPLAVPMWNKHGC
Assay: co-IP; FLAG-BirA*-IBTK Tet-on Flp-In T-REx 293 cells with/without DOX (10 ng/ml, 12 hr); anti-FLAG co-IP, Western blot of endogenous proteins (Figure 1G)

binding: no binding
Substance: eIF4G, endogenous (human (endogenous in Flp-In T-REx 293))

These are yes or no findings as the source states them, for the method shown. Binding seen in cells or lysates may run through a third protein. Sequences can lack the tags named with a protein.
